Holding throughout (assay type): physicochemical
Data set [1] in a line: Proton chemical shift of bound water of Ln(1)^3+ complexes relative to bulk water (1H NMR). The text has this: As further illustrated in Table 1, the proton chemical shifts of bound water in these lanthanide-macrocylic complexes, δ, relative to bulk water, at 0 ppm are generally highly shifted, either more than 6 ppm downfield or upfield (i.e., ±6 ppm or more), depending upon the properties of the central lanthanide ions. At 1.5 Tesla (T), a magnetic field strength presently used by many commercial MRI scanners, the exchange limit regimes, Δω•τM, of Eu(1)^3+, Tb(1)^3+, Dy(1)^3+, and Ho(1)^3+ are all greater than 1. At higher fields, however, such as 4.7 T and 11.75 T, more lanthanide complexes have exchange limit regimes greater than 1, with Δω•τM increasing as field strength increases. Therefore, favorable MT contrast effects are available for a broad range of lanthanide-macrocylic complexes over a broad range of magnetic field strengths. […]

The nature of data set [2]: Effect of saturation duration time and power on MT to bulk water, Ln(1)^3+. As to conditions: 4.7 T.
Data set [3] in a line: MT profiles (Z-profiles, CEST profiles) of Ln(1)^3+ complexes at 4.7 T. As to conditions: 62.5 mM, neutral pH, 1 s, 16 db. How it is done:
In a second experiment, MT profiles, also known as Z-profiles or CEST profiles, were obtained for lanthanide-macrocylic complexes of the general formula Ln(1)^3+. FIGS. 4-7 show representative spectra in the absence of saturation (bulk water peak at 0 ppm truncated to make the bound water peaks more visible) and MT profiles for Eu(1)^3+, Pr(1)^3+, Nd(1)^3+ and Yb(1)^3+ complexes, respectively, all measured at 4.7 T. All experiments were conducted using aqueous 62.5 mM Ln(1)^3+ adjusted to neutral pH and about 22° C., using an saturation duration time of 1 s, RF power of 16 db, and a 2.5 cm surface coil. […] Among these three complexes, Eu(1)^3+, shown in FIG. 4, had the greatest effect when the saturating pulse was centered at about 50 ppm (arrow): about a 60% decrease in the magnetization of bulk water, Ms, as compared to the magnetization of bulk water in the absence of a saturating pulse, Mo. Importantly, as indicated by a Ms/Mo of about 100%, when the counter-position (i.e., −50 ppm) was saturated, there was no distortion in the bulk water signal. Of course when the saturation pulse is directed to 0 ppm (arrow) there is no signal and therefore Ms/Mo is about 0%.

Data set [4] in a line: 1H NMR spectra of Ln(9)^3+ complexes, exchangeable amide protons. The source says:
For certain Ln(9)^3+ complexes, for example, with Ln equal to Yb or Tm, the bound water molecules are ^1H NMR invisible probably due to the fast exchange between the bound water and the bulk water. […] Unfortunately, the NMR signal was invisible, probably due to its fast exchange with the bulk water. However, the eight exchangeable amide protons present as two resonance peaks with equivalent intensity, at −14.5 (Ha) and −17.7 (Hb) ppm, respectively, are visible.

The nature of data set [5]: Concentration dependence of MT effect of Yb(9)^3+. Conditions: pH 7.4, room temperature.
Data set [6] in a line: pH dependence of MT and MT ratios of Yb(9)^3+. Conditions: 30 mM, 25° C.

On to `CCOC(=O)CNC(=O)CN1CCN(CC(=O)NCC(=O)OCC)CCN(CC(=O)NCC(=O)OCC)CCN(CC(=O)NCC(=O)OCC)CC1.[Dy+3]` [Dy(1)^3+], for which the “Observation of bound water” value in data set [1] is reported as “No”.

With `CCOC(=O)CNC(=O)CN1CCN(CC(=O)NCC(=O)OCC)CCN(CC(=O)NCC(=O)OCC)CCN(CC(=O)NCC(=O)OCC)CC1.[Er+3]` [Er(1)^3+], the “Observation of bound water” value in data set [1] is listed as “No”.

For the compound `CCOC(=O)CNC(=O)CN1CCN(CC(=O)NCC(=O)OCC)CCN(CC(=O)NCC(=O)OCC)CCN(CC(=O)NCC(=O)OCC)CC1.[Eu+3]` [Eu(1)^3+], the “Observation of bound water” value in data set [1] is “Yes”. Moreover, the “contrast with increasing saturation power” value in data set [2] is “contrast continuously improved”. In addition, the “MT properties on saturating bound water” value in data set [3] is “strong MT properties”.

As for `CCOC(=O)CNC(=O)CN1CCN(CC(=O)NCC(=O)OCC)CCN(CC(=O)NCC(=O)OCC)CCN(CC(=O)NCC(=O)OCC)CC1.[Ho+3]` [Ho(1)^3+], the “Observation of bound water” value in data set [1] is “No”.

`CCOC(=O)CNC(=O)CN1CCN(CC(=O)NCC(=O)OCC)CCN(CC(=O)NCC(=O)OCC)CCN(CC(=O)NCC(=O)OCC)CC1.[Nd+3]` [Nd(1)^3+]: in data set [1], the “Observation of bound water” value is recorded as “Yes”. Besides, the “contrast with increasing saturation power” value in data set [2] is “contrast continuously improved”. Moreover, the “MT properties on saturating bound water” value in data set [3] is “strong MT properties”.

As for `CCOC(=O)CNC(=O)CN1CCN(CC(=O)NCC(=O)OCC)CCN(CC(=O)NCC(=O)OCC)CCN(CC(=O)NCC(=O)OCC)CC1.[Pr+3]` [Pr(1)^3+], the “Observation of bound water” value in data set [1] is recorded as “Yes”. Further, the “MT properties on saturating bound water” value in data set [3] was “strong MT properties”.

Take `CCOC(=O)CNC(=O)CN1CCN(CC(=O)NCC(=O)OCC)CCN(CC(=O)NCC(=O)OCC)CCN(CC(=O)NCC(=O)OCC)CC1.[Sm+3]` [Sm(1)^3+]: the “Observation of bound water” value in data set [1] is reported as “Yes”.

Turning to `CCOC(=O)CNC(=O)CN1CCN(CC(=O)NCC(=O)OCC)CCN(CC(=O)NCC(=O)OCC)CCN(CC(=O)NCC(=O)OCC)CC1.[Tb+3]` [Tb(1)^3+], the “Observation of bound water” value in data set [1] is “No”.

For the compound `CCOC(=O)CNC(=O)CN1CCN(CC(=O)NCC(=O)OCC)CCN(CC(=O)NCC(=O)OCC)CCN(CC(=O)NCC(=O)OCC)CC1.[Tm+3]` [Tm(1)^3+], in data set [1], the “Observation of bound water” value was “Yes”.

On to `NC(=O)CN1CCN(CC(N)=O)CCN(CC(N)=O)CCN(CC(N)=O)CC1.[Tm+3]` [Tm(9)^3+], for which the “1H NMR visibility of bound water molecules” value in data set [4] is “invisible”.

As for `CCOC(=O)CNC(=O)CN1CCN(CC(=O)NCC(=O)OCC)CCN(CC(=O)NCC(=O)OCC)CCN(CC(=O)NCC(=O)OCC)CC1.[Yb+3]` [Yb(1)^3+], in data set [1], the “Observation of bound water” value is given as “Yes”. The “MT properties on saturating bound water” value in data set [3] is recorded as “no MT effect could be observed”.

For the compound `NC(=O)CN1CCN(CC(N)=O)CCN(CC(N)=O)CCN(CC(N)=O)CC1.[Yb+3]` [Yb(9)^3+], in data set [5], the “concentration at which paramagnetic relaxation effect predominates” value is given as at least 20 mM and the “optimal concentration for MT effect” value was “about 20 mM”. The “MTR (ratios of MT) versus pH” value in data set [6] is listed as “increases as a function of increasing pH”. Further, the “pH of minimum in MT (Mon/Moff)” value in data set [6] (saturating amide protons) is on record as around 7.4. Further, the “1H NMR visibility of bound water molecules” value in data set [4] was “invisible”.
